Measurements as given in publication PMC7969623.
Results are given in words; binding and its absence hold for the method and conditions named. Binding seen in cells or lysates may run through a third protein. A yes stands for co-enrichment or nearness to the bait. Other partners may have been found. Sequences can lack the tags named with a protein.

B1: Drebrin (protein, UniProt Q9QXS6 1-706)
chain: MAGVSFSGHRLELLAAYEEVIREESAADWALYTYEDGSDDLKLAASGEGGLQELSGHFENQKVMYGFCSVKDSQAALPKYVLINWVGEDVPDARKCACASHVAKVAEFFQGVDVIVNASSVEDIDAGAIGQRLSNGLARLSSPVLHRLRLREDENAEPVGTTYQKTDAAVEMKRINREQFWEQAKKEEELRKEEERKKALDARLRFEQERMEQERQEQEERERRYREREQQIEEHRRKQQSLEAEEAKRRLKEQSIFGDQRDEEEESQMKKSESEVEEAAAIIAQRPDNPREFFRQQERVASASGGSCDAPAPAPFNHRPGRPYCPFIKASDSGPSSSSSSSSSPPRTPFPYITCHRTPNLSSSLPCSHLDSHRRMAPTPIPTRSPSDSSTASTPIAEQIERALDEVTSSQPPPPPPPPPPTQEAQETTPSLDEELSKEAKVTAAPEVWAGCAAEPPQAQEPPLLQSSPLEDSMCTESPEQAALAAPAEPAASVTSVADVHAADTIETTTATTDTTIANNVTPAAASLIDLWPGNGEEASTLQAEPRVPTPPSGAEASLAEVPLLNEAAQEPLPPVGEGCANLLNFDELPEPPATFCDPEEEVGETLAASQVLTMPSALEEVDQVLEQELEPEPHLLTNGETTQKEGTQASEGYFSQSQEEEFAQSEEPCAKVPPPVFYNKPPEIDITCWDADPVPEEEEGFEGGD
B2: dynamin 1 (protein, UniProt P39053 1-867)
chain: MGNRGMEDLIPLVNRLQDAFSAIGQNADLDLPQIAVVGGQSAGKSSVLENFVGRDFLPRGSGIVTRRPLVLQLVNSTTEYAEFLHCKGKKFTDFEEVRLEIEAETDRVTGTNKGISPVPINLRVYSPHVLNLTLVDLPGMTKVPVGDQPPDIEFQIRDMLMQFVTKENCLILAVSPANSDLANSDALKIAKEVDPQGQRTIGVITKLDLMDEGTDARDVLENKLLPLRRGYIGVVNRSQKDIDGKKDITAALAAERKFFLSHPSYRHLADRMGTPYLQKVLNQQLTNHIRDTLPGLRNKLQSQLLSIEKEVDEYKNFRPDDPARKTKALLQMVQQFAVDFEKRIEGSGDQIDTYELSGGARINRIFHERFPFELVKMEFDEKELRREISYAIKNIHGIRTGLFTPDMAFETIVKKQVKKIREPCLKCVDMVISELISTVRQCTKKLQQYPRLREEMERIVTTHIREREGRTKEQVMLLIDIELAYMNTNHEDFIGFANAQQRSNQMNKKKTSGNQDEILVIRKGWLTINNIGIMKGGSKEYWFVLTAENLSWYKDDEEKEKKYMLSVDNLKLRDVEKGFMSSKHIFALFNTEQRNVYKDYRQLELACETQEEVDSWKASFLRAGVYPERVGDKEKASETEENGSDSFMHSMDPQLERQVETIRNLVDSYMAIVNKTVRDLMPKTIMHLMINNTKEFIFSELLANLYSCGDQNTLMEESAEQAQRRDEMLRMYHALKEALSIIGDINTTTVSTPMPPPVDDSWLQVQSVPAGRRSPTSSPTPQRRAPAVPPARPGSRGPAPGPPPAGSALGGAPPVPSRPGASPDPFGPPPQVPSRPNRAPPGVPSLGAWRLNSPQGKHENRAGKARL
B3: Exportin-2 (protein, UniProt Q9ERK4 1-971)
chain: MELSDANLQTLTEYLKKTLDPDPAIRRPAEKFLESVEGNQNYPLLLLTLLEKSQDNVIKVCASVTFKNYIKRNWRIVEDEPNKICEADRVAIKANIVHLMLSSPEQIQKQLSDAISIIGREDFPQKWPDLLTEMVNRFQSGDFHVINGVLRTAHSLFKRYRHEFKSNELWTEIKLVLDAFALPLTNLFKATIELCSTHANDASALRILFSSLILISKLFYSLNFQDLPEFFEDNMETWMNNFHTLLTLDNKLLQTDDEEEAGLLELLKSQICDNAALYAQKYDEEFQRYLPRFVTAIWNLLVTTGREVKYDLLVSNAIQFLASVCERPHYKNLFEDQNTLTSICEKVIVPNMEFRAADEEAFEDNSEEYIRRDLEGSDIDTRRRAACDLVRGLCKFFEGPVTGIFSGYVNSMLQEYAKNPSVNWKHKDAAIYLVTSLASKAQTQKHGITQANELVNLTEFFVNHILPDLKSNNVNEFPVLKADGIKYIMIFRNQVPKEHLLVSIPLLISHLEAESIVVHTYAAHALERLFTMRGSNNTTLFTAAEIAPFVEILLTNLFKALTLPGSSENEYIMKAIMRSFSLLQEAIIPYIPTLITQLTQKLLAVSKNPSKPHFNHYMFEAICLSIRITCKANPAAVVNFEEALFLVFTEILQNDVQEFIPYVFQVMSLLLETHKNDIPSSYMALFPHLLQPVLWERTGNIPALVRLLQAFLERGSSTIATAAADKIPGLLGVFQKLIASKANDHQGFYLLNSIIEHMPPESVDQYRKQIFILLFQRLQNSKTTKFIKSFLVFINLYCIKYGALALQEIFDGIQPKMFGMVLEKIIIPEIQKVSGNVEKKICAVGITKLLTECPPMMDTEYTKLWTPLLQSLIGLFELPEDDSIPDEEHFIDIEDTPGYQTAFSQLAFAGKKEHDPVGQMVNNPKIHLAQSLHKLSTACPGRVPSMVSTSLNAEALQYLQGYLQAASVTLL
B4: Puromycin-sensitive aminopeptidase (protein, UniProt Q11011 1-920)
chain: MWLAAAVPSLARRLLLLGPPPPPLLLLLSRSSRRRRRLHSLGLAAMPEKRPFERLPAEVSPINYSLCLKPDLLDFTFEGKLEAAAQVRQATNQIVMNCADIDIITASYAPEGDEEIHATGFNYQNEDEKVTLSFPSTLQTGTGTLKIDFVGELNDKMKGFYRSRYTTPAGEVRYAAVTQFEATDARRAFPCWDEPAIKATFDISLVVPKDRVALSNMNVIDRKPYPDDENLVEVKFARTPVMSTYLVAFVVGEYDFVETRSKDGVCVRVYTPVGKAEQGKFALEVAAKTLPFYKDYFNVPYPLPKIDLIAIADFAAGAMENWGLVTYRETALLIDPKNSCSSSRQWVALVVGHELAHQWFGNLVTMEWWTHLWLNEGFASWIEYLCVDHCFPEYDIWTQFVSADYTRAQELDALDNSHPIEVSVGHPSEVDEIFDAISYSKGASVIRMLHDYIGDKDFKKGMNMYLTKFQQKNAATEDLWESLESASGKPIAAVMNTWTKQMGFPLIYVEAEQVEDDRVLKLSQKKFCASGPYGGEDCPQWMVPITISTSEDPNQAKLKILMDKPEMSVVLKNVKPDQWVKLNLGTVGFYRTQYSSAMLESLLPGIRDLSLPPVDRLGLQNDLFSLARAGIISTVEVLKVMEAFVNEPNYTVWSDLSCNLGILSTLLSHTDFYEEIQEFVKDVFSPIGERLGWDPKPGEGHLDALLRGLVLGKLGKAGHKATLEEARRRFKEHVEGKQILSADLRSPVYLTVLKHGDGATLDIMLKLHKQADMQEEKNRIERVLGATLSPELIQKVLTFALSEEVRPQDTVSVIGGVAGGSKHGRKAAWKFIKDNWEELHNRYQGGFLISRLIKLSVEGFAVDKMAGEVKAFFESHPAPSAERTIQQCCENILLNAAWLKRDADSIHQYLLQRKTSPPSV

Molecular target: T1, PRRT2-HA (full length PRoline Rich Transmembrane protein 2 with HA tag fused at C terminus) (UniProt E9PUL5)
T1 sequence: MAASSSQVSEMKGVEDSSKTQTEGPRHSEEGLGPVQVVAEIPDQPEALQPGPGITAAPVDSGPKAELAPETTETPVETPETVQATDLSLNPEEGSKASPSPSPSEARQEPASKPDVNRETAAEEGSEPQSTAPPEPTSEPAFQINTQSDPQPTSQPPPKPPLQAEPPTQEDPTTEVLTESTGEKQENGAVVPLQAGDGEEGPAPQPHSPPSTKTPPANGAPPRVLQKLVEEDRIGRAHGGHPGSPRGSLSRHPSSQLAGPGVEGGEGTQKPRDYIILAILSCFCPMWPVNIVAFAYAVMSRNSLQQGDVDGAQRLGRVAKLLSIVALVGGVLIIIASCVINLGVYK
Test: affinity purification with mass spectrometry; PRRT2-HA or BAP-HA from COS-7 held on anti-HA agarose, washed, incubated overnight at 4 °C with total mouse brain extract in lysis buffer (1% Triton X-100, 150 mM NaCl, 50 mM Tris-HCl pH 7.4, 1 mM EDTA); eluted with HA peptide; bands between 95 and 130 kDa cut from the Coomassie gel, LC-MS/MS; only the target purified

binding, binds:
B1
B2
B3
B4
